Measured values published in the supplement of paper PMC12889115.
The other results are listed elsewhere or left out. Values are raw readings; no control value is given beside them.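 Primary screen: polymyxin B was added at a level permeabilizing Salmonella outer membranes while sparing inner membranes. DMSO wells, both with and without polymyxin B, established maximum growth. Plate-to-plate variation meant each plate was ranked on its own, and the lowest-OD600 compounds were selected as hits.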

Tested on: Salmonella enterica serovar Typhimurium SL1344
Experiment: bacterial growth OD600 after 18 h with compound and polymyxin B; higher = more bacterial growth (less inhibition)
Details: 50 µM, Mueller-Hinton broth

Row | Compound | bacterial growth OD600 (polymyxin B 0.75 µg/mL) | bacterial growth OD600 (polymyxin B 1 µg/mL)
1 | CC1(C2CCN(C(=O)Cc3ccc(Cl)cc3)CC2)NC(=O)N(C2Cc3ccccc3C2)C1=O (stereo unspecified) | 0.003 | –
2 | CSCCC(=O)N1CCCC(C(=O)Nc2ccc(-c3cccc(F)c3)cc2)C1 (stereo unspecified) | – | 0.74
3 | COC(c1ccc2c(c1)CN(C(=O)c1csnn1)CCO2)C1CCCCC1 (stereo unspecified) | 0.054 | –
4 | O=C(Nc1ccc(-c2ccco2)cc1)C1CCCN(Cc2ccc3nonc3c2)C1 (stereo unspecified) | 0.375 | –
5 | CSCc1ccc(C(=O)N2CCOC(CCc3ccccc3)C2)o1 (stereo unspecified) | 0.543 | –
6 | Cc1cccnc1-c1cccc2c1OC(CNC(=O)C(C)(C)C)C2 (stereo unspecified) | 0.835 | –
7 | CCCn1cc(CN2CCc3onc(-c4cccc(F)c4)c3C2)c(C)n1 | 0.93 | –
8 | COc1ccc(CC2CN(C(=O)CCSC)CCO2)cc1 (stereo unspecified) | 0.712 | –
9 | COc1cccc(CN2CCCC3(CCN(S(=O)(=O)N(C)C)C3)C2=O)c1 (stereo unspecified) | – | 0.896
10 | C=C(C)CNC(=O)C1CCC(=O)N(CCc2cccc(F)c2)C1 (stereo unspecified) | – | 0.876
11 | O=C(NCCN1CCOCC1)c1ccc(N2CCC(NCCOc3cccnc3)CC2)cc1 | 0.845 | –
12 | Cc1cccc(C2CCCN(C(=O)CC3(c4cccc(C(F)(F)F)c4)CC(=O)N(C4CC4)C3=O)C2)c1 (stereo unspecified) | 0.057 | –
13 | CN(CCc1cnn(C)c1)C(=O)c1cc(Cn2ccc3ccccc32)[nH]n1 | – | 0.908
14 | Cc1nonc1C(=O)N1CCCC(C(=O)c2ccc(Oc3ccccc3)cc2)C1 (stereo unspecified) | – | 0.658
15 | CCOC(=O)N1CCN(Cc2ccc3c(c2)CN(C(=O)CCc2cnn(C)c2)CCO3)CC1 | 0.869 | –
16 | O=C1CC(NS(=O)(=O)N2CCCC2)CN1Cc1ccccc1Cl (stereo unspecified) | – | 0.939

Row | Compound | bacterial growth OD600 (polymyxin B 0.75 µg/mL) | bacterial growth OD600 (polymyxin B 1 µg/mL)
17 | CCOc1cc(CN2CCC(C(Cc3ccccc3F)N(C)C(=O)c3ccsc3)CC2)ccc1O (stereo unspecified) | 0.788 | –
18 | O=C(c1cc2c(nc1Cl)CCC2)N1CCCC(Nc2ccc(F)cc2)C1 (stereo unspecified) | – | 0.803
19 | c1cncc(CN(CC2CCN(C3CCCC3)CC2)CC2CCCO2)c1 (stereo unspecified) | – | 0.888
20 | CCOC(=O)C1(CCCc2ccccc2)CCN(Cc2nccn2CC)CC1 | – | 0.844
21 | CCOC(=O)CNC(=O)N1CCC(CCOc2ccccc2)(C(=O)OCC)CC1 | – | 0.958
22 | Cc1ccc2c(c1)CN(CCC(=O)NCC(c1cccnc1)N1CCCCC1)CC(C)O2 (stereo unspecified) | 0.736 | –
23 | CCc1ccc(-c2cn3c(C(=O)N(CC)CCO)csc3n2)cc1 | 0.609 | –
24 | CC#CC(=O)N1CCCCC1C(=O)Nc1ccc(-n2nc(C)cc2C)cc1 (stereo unspecified) | 0.775 | –
25 | CC(C)c1noc(-c2ccc(OCC3(C)CCCNC3)nc2)n1 (stereo unspecified) | 0.791 | –
26 | COC(=O)[C@@H](NC1CCN(c2ccc(NC(=O)c3ccc(C)cc3C)cc2)CC1)C(C)C | 0.834 | –
27 | C=CCCC(=O)NCc1cccnc1N1CCN(c2ccccc2C)CC1 | – | 0.499
28 | COC(=O)CCCC(=O)N1CCC(C(=O)Nc2ccc(-c3nc4ccccc4o3)cc2)CC1 | – | 1.04
29 | COCCN1CCN(C(=O)c2ccc(OC3CCN(C(=O)C4CC4)CC3)cc2)CC1 | – | 0.89
30 | COc1cccc(CN2CCCC(CCC(=O)NCc3ccc(OC)cc3OC)C2)c1 (stereo unspecified) | 0.974 | –
31 | O=C(C1CCN(Cc2nc(C(c3ccccc3)c3ccccc3)no2)CC1)N1CCCCC1 | – | 0.504

An excerpt of these results, in markdown:

| Row | Compound | bacterial growth OD600 (polymyxin B 0.75 µg/mL) | bacterial growth OD600 (polymyxin B 1 µg/mL) |
| --- | --- | --- | --- |
| 14 | Cc1nonc1C(=O)N1CCCC(C(=O)c2ccc(Oc3ccccc3)cc2)C1 (stereo unspecified) | – | 0.658 |
| 15 | CCOC(=O)N1CCN(Cc2ccc3c(c2)CN(C(=O)CCc2cnn(C)c2)CCO3)CC1 | 0.869 | – |
